According to PubChem BioAssay AID493014 (National Center for Advancing Translational Sciences (NCATS), 2011):
Some of the results follow. Shown are side measurements of this screen, not its main read-out; they come without a call. Compounds called inactive in the main read-out are mostly missing here. Words in brackets tell the shape of the fitted curve; partial curves, single points and poor fits give uncertain potencies.

Experiment: qHTS Assay to Find Inhibitors of Chronic Active B-Cell Receptor Signaling
Settings: ABC-DLBCL IkBa-CBG/CBR reporter, luminescence ratio (green luciferase fused to IkBa over red control in TMD8 lymphoma cells), 4 h
In short: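 Cell line TMD8 (human ABC DLBCL), stably expressing tet-inducible CBG68-IkBa fusion and CBR; IMDM/0.5% FBS; cpd up to 46 uM; dox induction, 4 h, 37C/5% CO2; dual luminescence; green/red ratio; MG132 control.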

[1] = measured here: CBR red luminescence, cell number
[2] = measured here: IkBa-CBG green luminescence

Row | Structure (SMILES) | AC50 [1] | AC50 [2]
1 | COc1cccc(C2CC(c3cccs3)=NN2S(C)(=O)=O)c1OC (stereo not drawn) | 17.8 µM [rising, partial curve] | 
2 | Cc1nnc(Sc2c(N)n(C)c(=O)n(C)c2=O)s1 | 1.84 µM [rising, partial curve, poor fit] | 
3 | COc1ccc(NC(=O)CN(C)C(=O)c2ccc(NS(=O)(=O)c3ccc(C)c([N+](=O)[O-])c3)cc2)cc1 | 20.6 µM [falling, single point] | 
4 | Cc1nc2ccccn2c1C(=O)NCc1ccc2c(c1)OCO2 | 12.6 µM [falling, partial curve, poor fit] | 
5 | O=C(Nc1nnc(C2CC2)s1)C1Cc2ccccc2CN1S(=O)(=O)c1ccccc1F (stereo not drawn) | 35.5 µM [falling, single point] | 
6 | CCOC(=O)/C=C/C(=O)Nc1ccc(S(=O)(=O)N2CCCCCC2)cc1 | 12.6 µM [falling, partial curve, poor fit] | 
7 | O=C(NCC1CCCO1)C(=O)c1c[nH]c2ccccc12 (stereo not drawn) | 2.51 µM [falling, full curve] | 
8 | CC1(C)Cc2cccc(OCC(=O)Nc3cccnc3Cl)c2O1 | 32.6 µM [rising, single point] | 
9 | CCC(=O)N1CCc2cc(S(=O)(=O)CCC(=O)NCc3cccs3)ccc21 | 2.51 µM [falling, partial curve, poor fit] | 
10 | CCC(C)[C@H]1CNCCN1CCc1cc(C(F)(F)F)cc(C(F)(F)F)c1 (stereo partly drawn) | 16.4 µM [falling, partial curve] | 
11 | C=CCNc1nc(S(=O)Cc2ccc(C)cc2)nc2c1CCCC2 (stereo not drawn) | 35.5 µM [falling, single point] | 
12 | CCOc1cc(-c2noc(CCCC(N)=O)n2)cc(Br)c1OC | 7.08 µM [falling, partial curve] | 
13 | COc1ccc(N2C(S)=C(C#N)C(=O)NC2c2ccco2)cc1 (stereo not drawn) | 4.61 µM [rising, partial curve] | 23.1 µM [falling, single point]
14 | CC(C(=O)N1CCc2ccccc21)N(C)CC(=O)Nc1ccccc1Cl (stereo not drawn) | 3.66 µM [rising, full curve, poor fit] | 
15 | CCOC(=O)NNc1ccc2nonc2c1[N+](=O)[O-] | 35.5 µM [falling, single point] | 15.8 µM [rising, partial curve, poor fit]
16 | CN(CC(=O)Nc1ccccc1Cl)C(=O)COC(=O)Cc1ccc(F)cc1 | 5.62 µM [rising, single point] | 
17 | Cc1[nH]c2ccccc2c1/C=N/Nc1cccc(C(=O)O)c1 | 0.447 µM [falling, full curve, poor fit] | 
18 | O=C1CCc2nc3ccccc3c(=O)n2N1 | 29.1 µM [falling, single point] | 
19 | O=C(NCC1CCCN1S(=O)(=O)c1cccs1)C(=O)Nc1ccc(F)cc1F (stereo not drawn) | 6.51 µM [falling, full curve, poor fit] | 
20 | CCSc1nc2sc3c(c2c(=O)[nH]1)CCCC3 | 4.11 µM [rising, full curve, poor fit] | 

Record cards (already shown):
COc1ccc(N2C(S)=C(C#N)C(=O)NC2c2ccco2)cc1 (stereo not drawn) as listed: AC50 [1]: 4.61 µM [rising, partial curve]; AC50 [2]: 23.1 µM [falling, single point]
CC(C(=O)N1CCc2ccccc21)N(C)CC(=O)Nc1ccccc1Cl (stereo not drawn) as listed: AC50 [1]: 3.66 µM [rising, full curve, poor fit]

Going on with the list.

Row | Structure (SMILES) | AC50 [1] | AC50 [2]
21 | COC(=O)/C(=C\Nc1cccc(Cl)c1C)c1ncc(C(F)(F)F)cc1Cl | 0.82 µM [falling, single point] | 
22 | CCn1c(SCC(=O)Nc2cccc(NC(=O)c3cccs3)c2)nnc1-c1ccncc1 | 20 µM [falling, partial curve, poor fit] | 
23 | COC(=O)c1cc(NC(=O)c2ccc([N+](=O)[O-])cc2)c(=O)oc1C | 20 µM [rising, single point] | 
24 | O=C(NCCCN1CCC(Cc2ccccc2)CC1)C1CCN(S(=O)(=O)N2CCC3(CC2)OCCO3)CC1 | 1 µM [falling, partial curve, poor fit] | 
25 | Oc1c(Br)cccc1/C=N/Nc1c(F)c(F)c(F)c(F)c1F | 2.06 µM [rising, full curve] | 
26 | CCc1cc(=O)oc2cc(OCc3ccc(C(=O)O)o3)ccc12 | 3.98 µM [falling, partial curve, poor fit] | 
27 | O=C(NCc1csc(-c2cccs2)n1)C1CCCCC1 | 35.5 µM [falling, single point] | 
28 | c1ccc(CN2CCN(c3nc4ccccc4c4ccccc34)CC2)cc1 | 20.6 µM [rising, partial curve] | 
29 | CCCNc1c(NC(=O)c2cccs2)c(=O)oc2ccccc12 | 35.5 µM [falling, partial curve, poor fit] | 
30 | Cc1ccccc1-n1c(SCC(=O)N2CCN(c3ccccc3)CC2)nnc1-c1ccncc1 | 31.6 µM [rising, partial curve, poor fit] | 
31 | COc1cc(/C=C(/Sc2nnc(-c3ccc(F)cc3)o2)C(=O)O)ccc1OC(F)F | 17.8 µM [falling, single point] | 
32 | CCOc1ccc(OCCC(=O)N(CC)CC(=O)Nc2c(F)cccc2F)cc1 | 18.4 µM [rising, single point] | 18.4 µM [falling, single point]
33 | Fc1cccc(F)c1/C=N/Nc1ccccn1 | 22.4 µM [falling, single point] | 
34 | CN(C)c1ccc(CN2CCC(C(N)=O)CC2)cc1 | 0.794 µM [rising, full curve, poor fit] | 
35 | Nn1c(COc2ccccc2)nnc1SCc1cc(=O)[nH]c2ccccc12 | 2.91 µM [rising, single point] | 
36 | COCC(C)NCc1cccc(C)c1 (stereo not drawn) | 3.55 µM [rising, full curve, poor fit] | 
37 | CCOC(=O)C1CCN(Cc2nc3ccccc3c(=O)n2-c2ccc(F)cc2)CC1 | 29.1 µM [falling, single point] | 
38 | COCCN=c1scc(-c2ccc3c(c2)NC(=O)CO3)n1/N=C(\C)c1ccc(O)cc1 | 11.2 µM [falling, single point] | 
39 | N#Cc1c(NC(=O)Cn2cnc3ccccc3c2=O)oc(-c2ccccc2)c1-c1ccccc1 | 6.51 µM [falling, single point] | 
40 | O=C(Nc1ccc(N2CCN(C(=O)c3ccco3)CC2)c(Cl)c1)c1cc2ccccc2o1 | 35.5 µM [falling, single point] | 
